Source: PubChem BioAssay AID1688 (National Center for Advancing Translational Sciences (NCATS), 2009)
The whole screen tested about 220,000 compounds, of which about 2,400 (1.1%) were called active. The inconclusive results got no clear call from the source; some entries with a clear call stand among them for comparison. The call rests on the fitted dose curve; in most records, active means well fitted inhibition curve with a large enough effect; inconclusive means small, poorly fitted or top-dose-only effect, or effect the other way; inactive means no such curve, though single readings can be large or run the other way. Where the call is inconclusive, the potency comes from a doubtful curve fit.

experiment: qHTS Multiplex Assay to Identify Dual Action Probes in a Cell Model of Huntington: Aggregate Formation (GFP); settings: PC12 HttQ103-GFP aggregates, Acumen cytometry, 40 h; activity change, negative = inhibition: at 46.1 µM (top of the series) unless noted; further: nearly all actives have a fitted effect of over 60% in size
Summary of the method: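 Inducible Q103 Huntingtin exon 1–GFP PC12 line, 1500 cells/well in phenol red free DMEM with 5% equine and 5% calf serum. Tebufenozide 100 nM induced expression; compounds titrated; aggregates quantified by cytometry.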
On the % scale 0 is the no-effect control and ±100 the full control effect; potency means the concentration at half of the fitted maximal effect.

| SMILES | Potency | activity change, negative = inhibition |
| --- | --- | --- |
| CC(NC(=O)CSc1nc2sc3c(c2c(=O)n1-c1ccccc1)CCCC3)c1ccccc1 (stereo not drawn) | inconclusive: 2.24 µM [activator, full curve, poor fit] |  |
| CNc1ccccc(C(=O)/C=C/c2ccccc2OC)c1=O | inconclusive: 10 µM [activator, partial curve] |  |
| O=C(Cc1ccccc1)N/N=C/c1cc(Br)cc(Cl)c1O | inconclusive: 2.51 µM [inhibitor, full curve] |  |
| CC(=O)Nc1cccc(NC(=O)CS(=O)(=O)c2cn(CC(=O)N3CCOCC3)c3ccccc23)c1 |  | inactive: -2.53% |
| COc1ccc(-n2cc(-c3ccccc3)c3c(N4CC(C)OC(C)C4)ncnc32)cc1 (stereo not drawn) | inconclusive: 35.5 µM [inhibitor, single point] |  |
| O=C(CN1C(=O)NC2NC(=O)NC21)N/N=C/c1ccc(F)cc1 (stereo not drawn) | inconclusive: 1.41 µM [inhibitor, partial curve] |  |
| O=C(Cc1ccccc1)c1ccc2c(c1)OCCO2 |  | inactive: 8.68% [at 9.22 µM] |
| COc1ccccc1-c1nnc(SC(C(=O)c2c[nH]c3ccccc23)c2ccccc2)n1C (stereo not drawn) | active: 2.82 µM |  |
| CCCCNC(=O)Nc1c(C(=O)OCC)[nH]c2ccccc12 | inconclusive: 5.62 µM [inhibitor, single point] |  |
| Cc1ccc(C(=O)COC(=O)C2C3C=CC(C3)C2C(=O)OCC(=O)c2ccc(C)c(C)c2)cc1C (stereo not drawn) | inconclusive: 12.6 µM [inhibitor, single point] |  |
| CCCOc1cccc(C(=O)NC(=S)Nc2cccc(C(F)(F)F)c2)c1 |  | inactive: 19.5% |
| Cc1onc(-c2ccccc2)c1C(=O)Nc1sc2c(c1C#N)CCC2 | inconclusive: 2.82 µM [inhibitor, partial curve] |  |
| COc1ccccc1-c1nnc(SCC(=O)c2ccc(C3CCCCC3)cc2)n1Cc1ccco1 | inconclusive: 25.1 µM [inhibitor, single point] |  |
| Nc1ccc2c(c1)C(=O)C(=O)c1ccccc1-2 | active: 0.794 µM |  |
| Cc1cc(C)nc(SCc2nnc(SCC(=O)Nc3nccs3)n2C)n1 |  | inactive: -2.26% |
| O=C(C1=COCCO1)N1CCN(C(c2ccccc2)c2ccccc2)CC1 |  | inactive: -27.4% |
| NC(N)=NS(=O)(=O)c1ccc(NC(=S)NC(=O)/C=C/c2cccs2)cc1 | inconclusive: 2.82 µM [activator, full curve, poor fit] |  |
| NC(=O)CC(NC(=O)c1ccccc1)c1ccc(NCc2ccc(F)cc2)c([N+](=O)[O-])c1 (stereo not drawn) |  | inactive: 24.3% [at 9.22 µM] |
| CCN(CC(=O)NCc1cccs1)S(=O)(=O)c1ccc([N+](=O)[O-])cc1 | inconclusive: 35.5 µM [inhibitor, single point] |  |
| Nc1nc(CSc2ncccn2)nc(Nc2ccccc2)n1 | inconclusive: 12.6 µM [activator, partial curve] |  |
| Cc1ccc(C(=O)c2cc3c(cc2[N+](=O)[O-])OCCO3)cc1 | inconclusive: 22.4 µM [inhibitor, single point] |  |
| O=C(NCCc1ccccc1)C(=O)c1c(-c2ccccc2)cc2ccccn12 | inconclusive: 22.4 µM [activator, partial curve] |  |
| Cc1ccc(NC(=O)c2ccc([N+](=O)[O-])cc2)cc1S(=O)(=O)N(C)C |  | inactive: -1.45% |
| Cn1c(C(=O)NC2CC2)cc(=O)n(C)c1=O | inconclusive: 2 µM [activator, single point] |  |
| Cc1ccc(C)c(NC(=O)CCC(=O)NNC(=O)c2cccs2)c1 | inconclusive: 3.55 µM [activator, single point] |  |

| SMILES | Potency | activity change, negative = inhibition |
| --- | --- | --- |
| O=C(c1ccc(-c2ccccc2)cc1)N1CCCC1 |  | inactive: 3.48% |
| CN1CCN(C(=O)/C(=C/c2cccs2)NC(=O)c2cccs2)CC1 |  | inactive: -2.44% |
| Cc1nn(-c2nnc(NC3CCCCC3)nn2)c(C)c1Br | inconclusive: 31.6 µM [inhibitor, single point] |  |
| CCN1CCN(CCCNC(=O)C(=O)c2c(C)[nH]c3ccccc23)CC1 | inconclusive: 3.16 µM [activator, single point] |  |
| Cn1c(N)c(C(=O)Nc2ccccc2F)sc1=S |  | inactive: -18.8% [at 9.22 µM] |
| Nc1c(C(=O)NCC2CCCO2)sc2nc3c(c(-c4ccco4)c12)CC/C3=C\c1ccco1 (stereo not drawn) |  | inactive: 1.84% |
| O=C(Nc1ccc(Cl)cc1)C1=Cc2cc(Cl)ccc2OC1 | inconclusive: 1.26 µM [inhibitor, partial curve] |  |
| Cc1cc(S(=O)(=O)Nc2cc(C)c(O)c(C)c2)c(C)s1 | inconclusive: 17.8 µM [activator, partial curve] |  |
| CCN(CC)C(=O)c1sc(N)c(C#N)c1C |  | inactive: -13.1% |
| CCc1cc(SC#N)cc(C)c1NC(=O)CCl |  | inactive: -12.5% |
| Oc1c(N=Nc2ccccc2)sc2ccccc12 |  | inactive: 0.86% [at 9.22 µM] |
| Cc1cccc(N/C=C/C(=C(C#N)C#N)N(C)C)c1 | inconclusive: 3.55 µM [activator, partial curve] |  |
| O=C(Nc1ccc(C(=O)N2CCCC2)cc1)c1ccccc1F |  | inactive: -5.36% |
| Cc1ccc(OCCOCCN(C)C)c(Cl)c1 |  | inactive: -5.94% |
| Cc1ccc(NS(=O)(=O)c2ccc(OCC(=O)NCc3cccnc3)cc2)cc1 | inconclusive: 0.501 µM [activator, full curve, poor fit] |  |
| COc1ccc(C(=O)NC(=S)Nc2cccc(Cl)c2N2CCOCC2)cc1[N+](=O)[O-] |  | inactive: -2.54% |
| O=C(NNC(=O)c1ccccn1)c1cccc([N+](=O)[O-])c1 | inconclusive: 7.08 µM [inhibitor, partial curve] |  |
| O=C(NCc1ccco1)c1cccs1 | inconclusive: 31.6 µM [inhibitor, single point] |  |
| CCc1ccccc1NCC(=O)Nc1ccccc1C(=O)OC | inconclusive: 3.55 µM [inhibitor, single point] |  |
| Cc1c(Cl)cccc1NC(CC(=O)c1ccccc1)C(=O)O (stereo not drawn) | inconclusive: 35.5 µM [inhibitor, single point] |  |
| Cc1sc2ncnc(N3CCC(C(=O)Oc4cccc(Cl)c4Cl)CC3)c2c1C | inconclusive: 0.891 µM [inhibitor, full curve, poor fit] |  |
| COc1cccc2c1C(=O)c1c(O)c3c(c(O)c1C2=O)C[C@@](O)(C(=O)CO)C[C@@H]3OC1CC(N)C(O)C(C)O1 (stereo partly drawn) | active: 2.51 µM |  |
| Cc1ccc(-n2cc(CNC(C)c3cnn(C)c3C)c(-c3ccc(F)cc3)n2)cc1 (stereo not drawn) |  | inactive: 8.29% [at 9.22 µM] |
| CC(C)c1cc(C(=O)Nc2cc(Cl)ccc2O)no1 | inconclusive: 1 µM [activator, full curve, poor fit] |  |
| Nc1cccc(-n2nnnc2CN2CCOCC2)c1 |  | inactive: -5.69% |

5 structures already listed, arranged by formula weight, low to high.

| SMILES | Potency | activity change, negative = inhibition |
| --- | --- | --- |
| O=C(NCc1ccco1)c1cccs1 | inconclusive: 31.6 µM [inhibitor, single point] |  |
| Nc1cccc(-n2nnnc2CN2CCOCC2)c1 |  | inactive: -5.69% |
| Cn1c(N)c(C(=O)Nc2ccccc2F)sc1=S |  | inactive: -18.8% [at 9.22 µM] |
| CCc1ccccc1NCC(=O)Nc1ccccc1C(=O)OC | inconclusive: 3.55 µM [inhibitor, single point] |  |
| Cc1sc2ncnc(N3CCC(C(=O)Oc4cccc(Cl)c4Cl)CC3)c2c1C | inconclusive: 0.891 µM [inhibitor, full curve, poor fit] |  |

The results go on.

| SMILES | Potency | activity change, negative = inhibition |
| --- | --- | --- |
| COc1ccc(Nc2ncc(C(=O)N3CCN(Cc4ccccc4)CC3)c3ccccc23)cc1 | inconclusive: 15.8 µM [inhibitor, single point] |  |
| CN(NC(=S)Nc1ccc(OC(F)F)cc1)C(=S)Nc1ccc(OC(F)F)cc1 | inconclusive: 3.55 µM [inhibitor, single point] |  |
| CCCCn1cc(C(=O)c2cc(Br)ccc2O)cc(C#N)c1=O | active: 15.8 µM |  |
| COc1cc(C2c3c(oc4ccccc4c3=O)C(=O)N2CCN2CCOCC2)cc(OC)c1OC (stereo not drawn) | inconclusive: 0.631 µM [activator, full curve] |  |
| COc1ccc2occ(NC(C)=O)c2c1 | inconclusive: 10 µM [inhibitor, partial curve] |  |
| CCN1/C(=C/c2ccc3cccc(C)c3[n+]2CC)Sc2ccccc21 | active: 1.12 µM |  |
| OCCCc1nc2n(n1)C(c1cccs1)C=C(c1ccc(Br)cc1)N2 (stereo not drawn) | active: 11.2 µM |  |
| CCOC(=O)c1cc(-c2ccccc2)sc1NC(=O)c1ccc(OC)c(OC)c1 | inconclusive: 35.5 µM [inhibitor, single point] |  |
| O=C(O)C1C(c2ccccc2)C(C(=O)OCCCO)C1c1ccccc1 (stereo not drawn) |  | inactive: -1.17% |
| Cc1cc(-n2c(C)cc(C(=O)CSc3nnc4sc5ccccc5n34)c2C)no1 |  | inactive: 9.68% |
| CCOC(=O)CCCCC(=O)c1[nH]c(=O)[nH]c1CSc1nc(-c2ccccc2)c(C#N)c(=O)[nH]1 |  | inactive: -22% |
| CC(C)N(C(=O)Nc1ccc2nccnc2c1)C(C)C |  | inactive: -16.8% |
| CCCCOC(=O)n1c(=O)oc2cc(S(=O)(=O)N3CCCCC3)ccc21 | inconclusive: 35.5 µM [inhibitor, single point] |  |
| Cc1ccc(Oc2nc3ccccn3c(=O)c2/C=C(\C#N)C(=O)Nc2c(C)n(C)n(-c3ccccc3)c2=O)cc1 | inconclusive: 35.5 µM [activator, single point] |  |
| Cc1ccc2[nH]c3c(c2c1)CN(C(=O)CN1CCCCC1)CC3 |  | inactive: -15% [at 9.22 µM] |
| S=c1[nH]nc(-c2ccccc2)n1/N=C/c1ccc(-c2ccccc2Cl)o1 |  | inactive: 17.8% |
| CCNC(=S)N/N=C/c1cn(Cc2ccccc2F)c2ccccc12 | inconclusive: 35.5 µM [activator, single point] |  |
| C=CCc1ccc(OCCOCCOc2ccccc2[N+](=O)[O-])c(OC)c1 | inconclusive: 35.5 µM [inhibitor, single point] |  |
| COc1ccc(CCNC(=O)Cn2cnc3c(nnn3Cc3ccccc3F)c2=O)cc1OC | inconclusive: 3.55 µM [inhibitor, partial curve] |  |
| O=C1CN(C(=O)c2ccccc2F)c2ccccc2N1 | inconclusive: 3.55 µM [inhibitor, single point] |  |
| CCC(CC)C(=O)Nc1cc(C)cc(C)c1 | inconclusive: 1.26 µM [activator, single point] |  |
| O=C(O)c1cc(-c2ccco2)nc2cc3ccccc3cc12 |  | inactive: 2.68% [at 9.22 µM] |
| O=C(Nc1ccc(CN2CCOCC2)cc1)c1ccc(-c2cc(Cl)ccc2Cl)o1 | inconclusive: 17.8 µM [inhibitor, single point] |  |

Fetched by structure from the entries so far:

| SMILES | Potency | activity change, negative = inhibition |
| --- | --- | --- |
| O=C(O)C1C(c2ccccc2)C(C(=O)OCCCO)C1c1ccccc1 (stereo not drawn) |  | inactive: -1.17% |
| Cc1ccc2[nH]c3c(c2c1)CN(C(=O)CN1CCCCC1)CC3 |  | inactive: -15% [at 9.22 µM] |
